Laboratory results reported in publication PMC10372682.
No constants are given. Whether binding was seen depends on the method and setting. In cells and extracts the contact can be indirect. Here binding means that the protein was enriched with, or labelled near, the bait; the list need not be complete. A no says only that the protein was not detected with the bait.

Target: NERCLIN-BirA* fusion protein (human)
Assay: proximity labelling; BioID: NERCLIN-BirA* transiently expressed in 143B cells, biotin in the culture media for 24 h; biotinylated proteins extracted with streptavidin beads and analysed by mass spectrometry, four replicates; hits filtered against GFP-BirA*, AIF-BirA* and common matrix matches

binding: no binding
B1: GRPEL2 (protein, UniProt Q8TAA5 33-225)
chain: STATQRTAGEDCRSEDPPDELGPPLAERALRVKAVKLEKEVQDLTVRYQRAIADCENIRRRTQRCVEDAKIFGIQSFCKDLVEVADILEKTTECISEESEPEDQKLTLEKVFRGLLLLEAKLKSVFAKHGLEKLTPIGDKYDPHEHELICHVPAGVGVQPGTVALVRQDGYKLHGRTIRLARVEVAVESQRRL
